Experimental data reported in paper PMC12028738 (Marine Drugs, 2025).
These are yes or no findings as the source states them, for the method shown. Some binding calls cover weakened binding; strength is not graded here.

By UniProt entry, the sequences of proteins in these tests, tags left out. Residues count along the entry.
UniProt Q9NZQ7, residues 18-239: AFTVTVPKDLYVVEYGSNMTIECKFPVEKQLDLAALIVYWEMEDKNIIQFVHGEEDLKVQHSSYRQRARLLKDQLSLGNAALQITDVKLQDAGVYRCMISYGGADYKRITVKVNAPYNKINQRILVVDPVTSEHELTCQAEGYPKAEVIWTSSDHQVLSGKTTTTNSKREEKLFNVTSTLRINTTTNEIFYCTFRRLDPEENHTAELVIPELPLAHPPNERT

The binders below were run against recombinant human PD-L1 (residue 18–239, extracellular domain) (human) (UniProt Q9NZQ7) (assay: affinity ultrafiltration (AUF) with nanoLC-MS/MS; 100 µL enzymatic hydrolysate at 50 mg/mL incubated with 100 µL of 50 µg/mL PD-L1 at 37 °C for 90 min under shaking; 10 kDa cut-off membrane, washed 3 times with DPBS; binders released with 90% methanol and 30 min sonication; identified by nanoLC-MS/MS; only the target purified).

binding, binds:
VSYEESIEQLEIVK [C16]
VVSQTEDVR [S23]
VLGSGTNLDSAR [S10]
EILIEDEGELK [C35]
FTGMLSMLDDPEPFAR [S11]
SELDDELGR [C36]
LEMQEIQLTEAK [C24]
DGFIDKEDLK [C37]
IEDLSGGELQR [C34]
FVDHIMDDQVVEDLTIK [C12]
PLAIDLLHPSPEEEK [C8]
KLETLQEELELLK [S17]
TSLEEQLEEEEESR [C38]
AGVLADLEDK [C32]
HLDIPQMLDAQELVDMAKPDER [C13]
VWLDPNETSMISNANSR [S4]
FLEIFTQR [S1]
AFILPEGVSAER [S3]
TTNVVVADLSESK [C30]
AGFAGDDAPRAVFPSIVGRPR [C4]
TVQTLNLEIDSMR [S9]
LVMVEAELERGEER [S15]
LLEAQIATGGLIDPR [S16]
DGILQIDAPVAVAIDNK [S13]
QVNMANHLSKDSR [C7]
EGIFEEEIK [C40]
DAEEIEKDEQVAAEK [C41]
AVMSLQMEMQQIMK [S7]
QYEDMFGEDLVDR [C6]
VAPEEHPVLLTEAPLNPKANR [S6]
LSGGDIESYLLEK [S21]
SNAVGITWSPVEGAEK [C15]
KDLYANTVLSGGSTMFPGIADR [C2]
EILQGESNVQEVK [C33]
LLDPEDIVVERPDEK [C11]
GYEEWLISEMR [S8]
TVTFEEFLPMLAQIK [C3]
PGAGGKSSTYGR [C10]
ANAEVANWR [S19]
MAGTSDCVKR [S20]
AEQAEADKK [C42]
MTEQWMK [S14]
NIKEGDIVKR [S22]
EDDVQQMNPPK [S24]
EELDMEHRRSK [S12]
KKDEEEIEELR [C31]
IVPPEDGDDEK [C39]
ISVDVNIPADAIIGR [C9]
DYEEAVMQNDATVGQLK [C14]
VDTLMVRNNLR [S5]
